Data as given in PubChem BioAssay AID1159578 (Peter MacCallum Cancer Centre, 2015)

Aim: 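Genome-wide hunt for genes controlling movement of lymphatic endothelial cells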 (primary screen)
Cells: human lymphatic endothelial cells
Knock-down reagent: siRNA pool against human genes, 40 nM
Timing: 48 h after transfection
Measured: 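High-content imaging of dye-stained cells in a scratch assay measures filled wound area and nuclei per well; duplicate means given as ratio to mock and robust z-score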
Direction: migration robust z-score: higher = faster migration into the scratch; migration relative to mock: higher = more scratch area covered than mock; nuclei per well: higher = more cells in the well
Hit rule: 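Pools averaging fewer than 3300 nuclei are never called; remaining pools count as changed when migration robust z lies outside -2 to 2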
Meaning of the calls: active = migration changed; inactive = no migration change, or too few cells
The whole screen tested about 18,000 reagents; shown is a random part of them. In the full data, about 1,030 (5.7%) got an active call. 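Inactive calls also include pools with fewer than 3300 nuclei, whose migration was not assessed.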 Raw values vary from plate to plate and are shown uncorrected. Reagent sequences are not shown.

no.	gene	PubChem SID	migration robust z-score	migration class with cell-count check	migration relative to mock	nuclei per well, duplicate mean	call
1	NAB1 (NGFI-A binding protein 1)	SID255351132	-0.28	migration z between -2 and 2; enough cells	0.82	5208	inactive
2	OR51I1 (olfactory receptor family 51 subfamily I member 1)	SID255365601	-0.48	migration z between -2 and 2; enough cells	0.76	6650	inactive
3	LRRC14B (leucine rich repeat containing 14B)	SID255365552	-0.12	migration z between -2 and 2; enough cells	0.86	6842	inactive
4	ABCG4 (ATP binding cassette subfamily G member 4)	SID255359851	-1.64	migration z between -2 and 2; enough cells	0.49	6664	inactive
5	NUDT6 (nudix hydrolase 6)	SID255355644	0.28	migration z between -2 and 2; enough cells	0.86	4317	inactive
6	JPT2 (Jupiter microtubule associated homolog 2)	SID255361868	-0.94	migration z between -2 and 2; enough cells	0.64	5734	inactive
7	CCNK (cyclin K)	SID255353832	0.32	migration z between -2 and 2; enough cells	0.97	5787	inactive
8	AADAT (aminoadipate aminotransferase)	SID255357530	0	migration z between -2 and 2; enough cells	0.8	5745	inactive
9	RASSF1 (Ras association domain family member 1)	SID255355667	1.53	migration z between -2 and 2; enough cells	1.28	5240	inactive
10	TCF7L1 (transcription factor 7 like 1)	SID255360990	-0.68	migration z between -2 and 2; enough cells	0.68	5158	inactive
11	MBIP (MAP3K12 binding inhibitory protein 1)	SID255357788	0.36	migration z between -2 and 2; enough cells	0.98	4988	inactive
12	ALOX12B (arachidonate 12-lipoxygenase, 12R type)	SID255348277	0.1	migration z between -2 and 2; enough cells	0.82	5208	inactive
13	ADAM28 (ADAM metallopeptidase domain 28)	SID255355396	-0.29	migration z between -2 and 2; enough cells	0.75	5360	inactive
14	REV1 (REV1 DNA directed polymerase)	SID255357728	-1.53	migration z between -2 and 2; enough cells	0.51	6668	inactive
15	AKAP19 (A-kinase anchoring protein 19)	SID255361296	0.66	migration z between -2 and 2; enough cells	1.06	5866	inactive
16	PCDHAC1 (protocadherin alpha subfamily C, 1)	SID255359021	-0.67	migration z between -2 and 2; enough cells	0.71	5733	inactive
17	TRIL (TLR4 interactor with leucine rich repeats)	SID255354620	0.86	migration z between -2 and 2; enough cells	0.97	5114	inactive
18	OR8U9 (olfactory receptor family 8 subfamily U member 9)	SID255366027	-1.88	migration z between -2 and 2; enough cells	0.4	4828	inactive
19	SH3RF1 (SH3 domain containing ring finger 1)	SID255359516	0.55	migration z between -2 and 2; enough cells	0.91	6459	inactive
20	PMPCB (peptidase, mitochondrial processing subunit beta)	SID255354333	1.76	migration z between -2 and 2; enough cells	1.15	5746	inactive
21	CNTN3 (contactin 3)	SID255351414	0.48	migration z between -2 and 2; enough cells	1.01	6152	inactive
22	KIR2DL4	SID255350646	3.19	migration z above 2; enough cells	1.71	5863	active
23	ZNF763 (zinc finger protein 763)	SID255364779	-1.52	migration z between -2 and 2; enough cells	0.49	5653	inactive
24	ZNRD2 (zinc ribbon domain containing 2)	SID255355158	0.28	migration z between -2 and 2; enough cells	0.96	5726	inactive
25	ACP3 (acid phosphatase 3)	SID255348151	0.57	migration z between -2 and 2; enough cells	0.92	5706	inactive
26	FBXO47 (F-box protein 47)	SID255366011	-0.47	migration z between -2 and 2; enough cells	0.72	3618	inactive
27	DUSP2 (dual specificity phosphatase 2)	SID255349394	0.34	migration z between -2 and 2; enough cells	0.87	5676	inactive
28	GLRA4 (glycine receptor alpha 4 (pseudogene))	SID255365946	0.75	migration z between -2 and 2; enough cells	0.95	5390	inactive
29	RAD23A (RAD23 nucleotide excision repair protein A)	SID255352021	0.78	migration z between -2 and 2; enough cells	0.96	5420	inactive
30	ZSCAN29 (zinc finger and SCAN domain containing 29)	SID255363266	-2.13	migration z below -2; enough cells	0.33	4164	active
31	GLTP (glycolipid transfer protein)	SID255357573	0.04	migration z between -2 and 2; enough cells	0.89	4706	inactive
32	TRIM21 (tripartite motif containing 21)	SID255352636	1.06	migration z between -2 and 2; enough cells	1.01	7045	inactive
33	DNAJC11 (DnaJ heat shock protein family (Hsp40) member C11)	SID255358816	-0.15	migration z between -2 and 2; enough cells	0.84	6020	inactive
34	ERC2 (ELKS/RAB6-interacting/CAST family member 2)	SID255356646	0.78	migration z between -2 and 2; enough cells	1.09	6846	inactive
35	PICK1 (protein interacting with PRKCA 1)	SID255357317	-0.2	migration z between -2 and 2; enough cells	0.76	5327	inactive
36	PLEKHM1P1	SID255365910	1.19	migration z between -2 and 2; enough cells	1.04	5299	inactive
37	PPP2R5B (protein phosphatase 2 regulatory subunit B'beta)	SID255351752	-1.01	migration z between -2 and 2; enough cells	0.61	5235	inactive
38	FAP (fibroblast activation protein alpha)	SID255349628	-0.21	migration z between -2 and 2; enough cells	0.76	4932	inactive
39	CRIPAK (retired record)	SID255364854	0.29	migration z between -2 and 2; enough cells	0.96	6604	inactive
40	B3GALNT2 (beta-1,3-N-acetylgalactosaminyltransferase 2)	SID255363393	-1.43	migration z between -2 and 2; enough cells	0.53	7272	inactive
41	FYTTD1 (forty-two-three domain containing 1)	SID255361266	1.04	migration z between -2 and 2; enough cells	1.16	5938	inactive
42	SNX18 (sorting nexin 18)	SID255362147	-0.59	migration z between -2 and 2; enough cells	0.74	4843	inactive
43	PTBP1 (polypyrimidine tract binding protein 1)	SID255351916	-1.09	migration z between -2 and 2; enough cells	0.6	4150	inactive
44	RAB23 (RAB23, member RAS oncogene family)	SID255357868	1.25	migration z between -2 and 2; enough cells	1.04	6283	inactive
45	QRICH1 (glutamine rich 1)	SID255358228	0.88	migration z between -2 and 2; enough cells	1.12	4715	inactive
46	ZNF80 (zinc finger protein 80)	SID255353222	0.03	migration z between -2 and 2; enough cells	0.9	4115	inactive
47	NRCAM (neuronal cell adhesion molecule)	SID255351301	0.04	migration z between -2 and 2; enough cells	0.89	6925	inactive
48	PITX1 (paired like homeodomain 1)	SID255351595	1.48	migration z between -2 and 2; enough cells	1.09	5536	inactive
49	SLC25A29	SID255362573	-1.95	migration z between -2 and 2; enough cells	0.43	4652	inactive
50	RANBP2 (RAN binding protein 2)	SID255352037	-0.21	migration z between -2 and 2; enough cells	0.76	5478	inactive
51	RFK (riboflavin kinase)	SID255358588	-0.36	migration z between -2 and 2; enough cells	0.74	5810	inactive
52	LRRTM1 (leucine rich repeat transmembrane neuronal 1)	SID255365228	-0.42	migration z between -2 and 2; enough cells	0.78	5266	inactive
53	C11orf16 (chromosome 11 open reading frame 16)	SID255359113	-0.08	migration z between -2 and 2; enough cells	0.86	5159	inactive
54	WDR37 (WD repeat domain 37)	SID255355845	0.25	migration z between -2 and 2; enough cells	0.95	5455	inactive
55	SH2D1A (SH2 domain containing 1A)	SID255350822	-1.77	migration z between -2 and 2; enough cells	0.43	5239	inactive
56	ARMC5 (armadillo repeat containing 5)	SID255360472	0.16	migration z between -2 and 2; enough cells	0.92	5635	inactive
57	KIAA0513	SID255354535	-0.38	migration z between -2 and 2; enough cells	0.78	5774	inactive
